Measurements: patent US7266458B2, “BioMAP analysis” (Bioseek, Inc., priority 2000, dated 2007)
At least one compound was matched to its structure with a doubt left.

How the values were obtained:
[1] = test system: human umbilical vein endothelial cells (HUVEC); experiment: Optimized inflammatory assay combination (IL-1+TNF-α+IFN-γ) with added agents, cell-based ELISA biomap; conditions: hierarchical clustering, FIG. 4C
Experimental: After 24 hours, cultures are washed and evaluated for the cell surface expression of ICAM-1 (1), VCAM-1 (2), E-selectin (3), IL-8 (4), CD31 (5), HLA-DR (6) and MIG (7) by cell-based ELISA performed as described above.
Confluent cultures of HUVEC cells are treated with TNF-α (5 ng/ml)+IFN-γ (100 ng/ml)+IL-1 (1 ng/ml) in the presence or absence of agents or buffers at the concentrations indicated in Table 1. Compounds are obtained from commercial sources and prepared in a suitable buffer (water, base media, DMSO, methanol or ethanol). After 24 hours, cultures are washed and evaluated for the cell surface expression of ICAM-1 (1), VCAM-1 (2), E-selectin (3), IL-8 (4), CD31 (5), HLA-DR (6) and MIG (7) by cell-based ELISA performed as described above. […]
Readout patterns are analyzed by hierarchical clustering techniques, and are visualized as a tree diagram in which a) each terminal branch point represents the readout pattern from one assay combination in one experiment; b) the length of the vertical distance from the upper horizontal line (no change and control patterns) to the termini are related to the extent of difference in the readout pattern from the control environment pattern; and c) the distance along, the branches from one terminal pattern value to another reflects the extent of difference between them. […]

[2] = test system: human umbilical vein endothelial cells (HUVEC); experiment: Multiplex assay combinations for distinguishing mechanism of action (single cytokines, activating anti-p55); type: cell-based; conditions: 20 μM AA861, 10 μM NHGA
Experimental: Confluent cultures of HUVEC cells are treated with TNF-α (5 ng/ml), IFN-γ (100 ng/ml), IL-1 (20 ng/ml), the combination of TNF-α+IFN-γ+IL-1, or media (no cytokine) in the presence or absence of neutralizing anti-TNF-α, 20 μM AA861 or 10 μM NHGA. After 24 hours, cultures are washed and evaluated for the cell surface expression of ICAM-1 (1), VCAM-1 (2), E-selectin (3), IL-8 (4), and MIG (5) by cell-based ELISA performed as described in Example 1. A graphical representation of the resulting biomaps derived from the data is shown in FIG. 5, coded as described above.
Confirmation is performed by evaluating the test agent in assay combinations that include both physiologic and alternative pathway activators. Confluent cultures of HUVEC cells are treated with TNF-α (5 ng/ml), IL-1 (20 ng/ml), an activating antibody against the TNF-α receptor p55, or media. After 24 hours, cultures are washed and evaluated for the cell surface expression of ICAM-1 (1), VCAM-1 (2), E-selectin (3), CD31 (4), and MIG (5) by cell-based ELISA performed as described above. A graphical representation of the resulting biomap, prepared from the data is shown in FIG. 6, coded as described above.

C[C@@H]1C[C@H]2[C@@H]3CCC4=CC(=O)C=C[C@]4(C)[C@@]3(F)[C@@H](O)C[C@]2(C)[C@@]1(O)C(=O)CO [dexamethasone] was tested. Which “reference biomaps compared by pattern similarity and cluster analysis” value [1] did it give?
The value was “related reference biomaps that are distinct from those of NFκB pathway inhibitors”.

Which results are given for CC1=C(C)C(=O)C(CCCCC#CCCCC#CCO)=C(C)C1=O [AA861]?
reference biomaps compared by pattern similarity and cluster analysis [1]: have similar reference biomaps and cluster together; cytokine signaling pathways targeted in the panel [2]: target multiple cytokine signaling pathways
